Values from PubChem BioAssay AID1224830 (NIAID, 2016).
The deposit covers about 18,000 reagents; below is an unselected part. In the full data, about 2,900 (16%) were called active. 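Calls are made per well; low scores hint the gene aids the LPS response, high scores that it dampens it.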 Repeated entries: four replicate wells of each siRNA pool.

Screen: 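Regulators of TLR4 signalling towards TNF-alpha in macrophage-like cells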 (primary screen)
Cells: human THP-1 monocytic leukaemia cells, TNF dual-luciferase reporter clone, PMA-differentiated to macrophage-like cells
Reagents: siRNA pool against human genes, 50 nM
Timing: LPS for 4 h, given about 3 days after siRNA transfection
Conditions: bacterial LPS (TLR4 ligand), 10 ng/ml
Measurement: 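Ratio of firefly to renilla light, scaled to the plate median and expressed as a robust z-score per replicate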
Reading the numbers: TNF reporter robust z-score: higher = stronger TNF reporter response to LPS
Active means: 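Each well counts as active if its z-score is over 2.8 or under -1.5; controls are left without a call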

The opening 4 records as a preview:
Gene	TNF reporter robust z-score	outcome
MYL2	0.35	inactive
MYL2	0.46	inactive
MYL2	-0.49	inactive
MYL2	-0.23	inactive

The listing, from the start:
Gene	TNF reporter robust z-score	outcome
MYL2	0.35	inactive
MYL2	0.46	inactive
MYL2	-0.49	inactive
MYL2	-0.23	inactive
ARL6	-1.17	inactive
ARL6	-0.15	inactive
ARL6	-0.64	inactive
ARL6	-1.57	active
EMP2	0.16	inactive
EMP2	0	inactive
EMP2	0.31	inactive
ADAM22	1.4	inactive
ADAM22	0.65	inactive
ADAM22	2.16	inactive
ADAM22	2.76	inactive
EVL	-0.42	inactive
EVL	-0.75	inactive
EVL	-1.28	inactive
EVL	-0.18	inactive
TIMM8A	-0.74	inactive
TIMM8A	0.3	inactive
TIMM8A	-0.9	inactive
TIMM8A	0.68	inactive
STK11IP	-0.91	inactive
STK11IP	-0.4	inactive
STK11IP	-0.52	inactive
STK11IP	-0.24	inactive
TRH	-1.44	inactive
TRH	-1.27	inactive
TRH	-1.51	active
TRH	-1.46	inactive
UQCC4	-1.47	inactive
UQCC4	-1.1	inactive
UQCC4	-1.52	active
UQCC4	-0.5	inactive
ZMIZ1	-1.26	inactive
ZMIZ1	-0.72	inactive
ZMIZ1	-1.37	inactive
ZMIZ1	-1.03	inactive
SREBF2	-0.46	inactive
SREBF2	-1.08	inactive
SREBF2	-0.18	inactive
SREBF2	0.04	inactive
OLAH	0.9	inactive
OLAH	2.65	inactive
OLAH	0.44	inactive
OLAH	1.87	inactive
